According to patent US20030186954A1, “Estriol to treat and prevent cardiovascular disease” (priority 2002, published 2003):

Test: Steroid levels in plasma and urine of estriol cream treated monkeys
Conditions: ovariectomized monkeys treated daily with 0.3% estriol topical cream

In the case of `C[C@]12CC[C@@H]3c4ccc(O)cc4CC[C@H]3[C@@H]1C[C@@H](O)[C@@H]2O` [Estriol], the “Estradiol (E2) in plasma” value is reported as 21 ± 2 pg/mL and the Progesterone in plasma is reported as 0.7 ± 0.3 ng/mL.
